Source: PubChem BioAssay AID1487 (National Center for Advancing Translational Sciences (NCATS), 2009)
The other results are listed elsewhere or left out. The main result of the screen is listed elsewhere. These columns were measured beside it and carry no call. The list favours compounds with an active or inconclusive main result. Words in brackets tell the shape of the fitted curve; partial curves, single points and poor fits give uncertain potencies.

Test: qHTS Assay for Modulators of Lamin A Splicing
Conditions: HeLa LMNA splicing GFP/RFP minigene ratio, 48 h
Method in brief: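 Read-out is the ratio of GFP to DsRed2 object intensity, acquired by 488 nm laser-scanning cytometry on HeLa lamin A-EGFP minigene reporter cells. Compound incubation 48 hrs at 37 °C in Opti-MEM with 2% FBS; DMSO 0.5% final.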

[1] = measured here: RFP viability control channel
[2] = measured here: GFP splicing reporter channel

SMILES | AC50 [1] | AC50 [2]
COc1ccc(Cc2nn3c(-c4ccccc4Br)nnc3s2)cc1 | 11.2 µM [rising, single point] | –
COc1ccccc1C1SCCN1S(=O)(=O)c1cccc(C(F)(F)F)c1 (stereo unspecified) | 12.6 µM [rising, single point] | –
S=C(NCc1ccncc1)Nc1ccc(Cl)cc1 | 22.4 µM [rising, single point] | 15.8 µM [rising, single point]
O=C(c1ccc(Cl)c(S(=O)(=O)N2CCc3ccccc3C2)c1)N1CCN(c2ccccc2)CC1 | 25.1 µM [rising, single point] | 14.1 µM [rising, single point]
O=C(Cn1c(=S)[nH]c2ccccc21)c1ccccc1 | 31.6 µM [rising, single point] | 15.8 µM [rising, single point]
CCOC(=O)CCNC(=O)Nc1ccc2nc(C)n(Cc3ccc(Cl)cc3)c(=O)c2c1 | 7.08 µM [rising, partial curve, poor fit] | 11.2 µM [rising, partial curve, poor fit]
COc1ccc(/C=N/NC(=O)CSc2nnc(CCCc3ccc(OC)c(C)c3)o2)cc1 | 22.4 µM [rising, single point] | 14.1 µM [rising, single point]
c1coc(CNc2nc(-c3ccncc3)cs2)c1 | 25.1 µM [rising, single point] | –
Cc1cc(C2CCCCC2)n(O)c(=O)c1 | 7.94 µM [falling, partial curve] | 3.98 µM [falling, partial curve]
Cc1cc(C)cc(-n2c(SCC(=O)NCc3ccco3)nc3ccccc3c2=O)c1 | 35.5 µM [rising, single point] | –
Cc1ccc(S(=O)(=O)CC(=O)Nc2sc3c(c2C#N)CCCC3)cc1 | 0.01 µM [falling, full curve, poor fit] | –
COc1cccc(-c2nnc(SCN3C(=O)c4ccccc4C3=O)n2C)c1 | – | 0.00631 µM [falling, full curve, poor fit]
COc1ccc(-c2cn3c(C)c(C(=O)Nc4cccc(C)n4)sc3n2)cc1 | 14.1 µM [rising, partial curve] | 14.1 µM [rising, partial curve]
O=C(Nc1ccc(Cl)cc1)N1CCC(c2nc(-c3ccc(F)cc3)no2)CC1 | 12.6 µM [rising, single point] | –
Oc1ccccc1N=Cc1sc2ccccc2c1Cl | 17.8 µM [rising, partial curve, poor fit] | –
COc1ccc2[nH]cc(CCNc3cc(-c4ccoc4)ncn3)c2c1 | 20 µM [rising, single point] | 31.6 µM [rising, single point]
COC(=O)C1CCCCN1C(=O)CCc1nnc(CCc2c[nH]c3ccccc23)o1 (stereo unspecified) | 0.2 µM [falling, full curve] | 0.112 µM [falling, full curve, poor fit]
O=C(Nc1ccc(N2CCN(C(=O)c3ccccc3)CC2)cc1)c1ccc([N+](=O)[O-])o1 | 14.1 µM [falling, partial curve] | 5.62 µM [falling, partial curve]
COc1cccc(Cn2c(CNC(=O)Cc3cccc(C)c3)nc3cccnc32)c1 | 1.58 µM [falling, full curve, poor fit] | 35.5 µM [falling, partial curve]
C=CCNc1nnc(SC2CC(=O)N(c3ccc(OCCC)cc3)C2=O)s1 (stereo unspecified) | 31.6 µM [rising, single point] | –
O=C(Cc1ccccc1)Nc1ccc(SC(F)F)cc1 | 8.91 µM [rising, partial curve, poor fit] | –
Cc1cccc(OCCCC(=O)N2CCCc3ccccc32)c1C | 35.5 µM [rising, single point] | –
COc1ccc(-c2cc(-c3nnc(COC(=O)C4CC4C)o3)c3ccccc3n2)cc1OC (stereo unspecified) | 14.1 µM [rising, partial curve] | –
Cc1cccc(-c2noc(-c3ccc(Cl)cc3[N+](=O)[O-])n2)c1 | 0.01 µM [rising, full curve, poor fit] | –
N=c1c2c(-c3ccccc3)c(-c3ccccc3)n(Cc3ccco3)c2ncn1CCCn1ccnc1 | 8.91 µM [rising, partial curve] | 15.8 µM [rising, partial curve, poor fit]
CCOC(=O)c1ccc(NC(=O)CN2CCN(Cc3ccccc3)CC2)cc1 | 7.94 µM [falling, full curve, poor fit] | 7.08 µM [falling, full curve, poor fit]
CCCC(C)NC(=O)COc1ccc(S(=O)(=O)c2ccc(OCC(=O)NC(C)CCC)cc2)cc1 (stereo unspecified) | 22.4 µM [rising, single point] | 12.6 µM [rising, single point]
CC(NC(=S)Nc1ccc(S(N)(=O)=O)cc1)c1ccc2c(c1)OCO2 (stereo unspecified) | 22.4 µM [rising, single point] | 14.1 µM [rising, partial curve, poor fit]

Shown as comma-separated lines: part of the list above
SMILES,AC50 [1],AC50 [2]
COc1ccc(-c2cc(-c3nnc(COC(=O)C4CC4C)o3)c3ccccc3n2)cc1OC (stereo unspecified),"14.1 µM [rising, partial curve]",–
Cc1cccc(-c2noc(-c3ccc(Cl)cc3[N+](=O)[O-])n2)c1,"0.01 µM [rising, full curve, poor fit]",–
N=c1c2c(-c3ccccc3)c(-c3ccccc3)n(Cc3ccco3)c2ncn1CCCn1ccnc1,"8.91 µM [rising, partial curve]","15.8 µM [rising, partial curve, poor fit]"

(next part)

SMILES | AC50 [1] | AC50 [2]
Cc1ccc(S(=O)(=O)N2CCC(=O)N(C(COCc3ccc(Cl)cc3)Cc3ccccc3)CC2)cc1 (stereo unspecified) | 22.4 µM [rising, single point] | 17.8 µM [rising, single point]
Cc1nc(SCC(=O)N2CCc3ccccc3C2)c2c(C)c(C)sc2n1 | 14.1 µM [rising, single point] | –
O=C(Cc1ccccc1)N/N=C/c1ccc(Cl)cc1Cl | 10 µM [rising, partial curve] | –
O=C(Nc1nn[nH]n1)c1ccc(S(=O)(=O)N2CCCCC2)cc1 | 0.562 µM [rising, full curve, poor fit] | –
Cc1cccc(NC(=O)c2ccc(-n3cccn3)c([N+](=O)[O-])c2)c1 | 14.1 µM [rising, single point] | 35.5 µM [rising, single point]
N#Cc1nc(-c2ccc(OCc3ccccc3)cc2)oc1N1CCC(C(N)=O)CC1 | – | 5.62 µM [rising, single point]
S=C1SCN(Cc2ccccc2)CN1Cc1ccccc1 | 0.0316 µM [falling, full curve, poor fit] | 0.562 µM [falling, full curve, poor fit]
O=C(NC(NC(=S)Nc1c(Cl)cc(Cl)cc1Cl)C(Cl)(Cl)Cl)OCc1ccccc1 (stereo unspecified) | 2.82 µM [rising, full curve, poor fit] | –
Cc1cccc(C)c1OCCNC(=O)OCc1ccccc1 | – | 8.91 µM [falling, partial curve, poor fit]
Oc1ccc(Cl)cc1C1=NNC(c2ccc(Cl)cc2)C1 (stereo unspecified) | 35.5 µM [rising, single point] | –
CCOc1ccc2c(c1)OC(c1ccc(OC)cc1)(C(F)(F)F)NC2=O (stereo unspecified) | 3.55 µM [rising, partial curve, poor fit] | –
Cn1c(SCc2c(Cl)cccc2Cl)nnc1-c1cccs1 | – | 11.2 µM [rising, single point]
CCn1c(/C=C/c2ccccc2)nc2ccccc2c1=O | – | 35.5 µM [falling, single point]
CC(OC(=O)c1cc(S(=O)(=O)Nc2ccc(F)cc2)ccc1Cl)C(=O)Nc1ccc2c(c1)OCCO2 (stereo unspecified) | 35.5 µM [rising, single point] | –
COc1cc(C(=O)Nc2nc3ccc(S(C)(=O)=O)cc3s2)cc(OC)c1C | 4.47 µM [falling, single point] | –
COc1cc(NC(=O)c2c(F)c(F)c(F)c(F)c2F)c(OC)cc1Cl | 7.94 µM [rising, partial curve, poor fit] | –
Cn1c(SCC(=O)N2CCCc3ccccc32)nnc1-c1ccccc1 | – | 0.501 µM [rising, full curve]
NC(=O)c1nn(-c2ccccc2)nc1NC(=O)CSc1nnnn1-c1ccc(Cl)cc1 | – | 1.58 µM [rising, partial curve]
O=C(CC(=O)c1cc(Cl)ccc1O)c1ccccc1 | 35.5 µM [rising, single point] | –
Cc1cc(/C=C2/SC(=O)NC2=O)c(C)n1-c1ccc(N2CCOCC2)cc1 | 8.91 µM [rising, partial curve, poor fit] | –
C=CCSc1nc2c(c(=N)n1CC=C)C1CCCC1S2 (stereo unspecified) | 25.1 µM [rising, single point] | 14.1 µM [rising, partial curve, poor fit]
CCN(CC)CCCn1c(C)cc2c(c1=O)C(c1cccc(Cl)c1)C(C#N)=C(N)O2 (stereo unspecified) | 7.08 µM [rising, single point] | 11.2 µM [rising, single point]
Cc1cc([N+](=O)[O-])ccc1NC(=O)CN1C2CCC1CC(NC(=O)NC13CC4CC(CC(C4)C1)C3)C2 (stereo unspecified) | 8.91 µM [falling, partial curve, poor fit] | 10 µM [falling, partial curve]
CCn1c2ccccc2c2cc(CC(N)=O)ccc21 | 35.5 µM [falling, single point] | –
O=C(NCc1ccco1)c1ccccc1NS(=O)(=O)c1ccc(Cl)s1 | 15.8 µM [rising, single point] | –
CC1CCCCN1S(=O)(=O)c1ccc(C(=O)Nc2sc3c(c2C(N)=O)CC(C)(C)NC3(C)C)cc1 (stereo unspecified) | 15.8 µM [rising, single point] | –
O=C(c1cccc(C(F)(F)F)c1)C1CCCN(Cc2cccn2-c2ncccn2)C1 (stereo unspecified) | 35.5 µM [falling, single point] | –
